{
  "source": "the supplement of paper PMC3334620",
  "note": "The full ranking holds about 33,000 sequences; the median of “E-score (-0.5 to 0.5)” is about -0.0014, and the highest 2% start at about 0.25. Some of the results follow.",
  "data": [
    {"target": "T1, Cad1 (UniProt P24813)", "T1 sequence": "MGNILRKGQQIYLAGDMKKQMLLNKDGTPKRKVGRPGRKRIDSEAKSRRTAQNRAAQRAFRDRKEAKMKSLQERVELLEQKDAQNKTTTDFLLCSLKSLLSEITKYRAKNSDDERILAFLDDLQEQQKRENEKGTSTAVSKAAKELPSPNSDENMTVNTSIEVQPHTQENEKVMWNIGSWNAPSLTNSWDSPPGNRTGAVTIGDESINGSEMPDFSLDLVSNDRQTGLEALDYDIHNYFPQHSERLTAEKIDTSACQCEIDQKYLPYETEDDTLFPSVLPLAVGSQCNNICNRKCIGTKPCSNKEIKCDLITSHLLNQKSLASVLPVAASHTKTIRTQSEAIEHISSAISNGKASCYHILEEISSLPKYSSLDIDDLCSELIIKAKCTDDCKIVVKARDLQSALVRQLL", "assay": "PBM E-score (8-mer binding enrichment) (E-score (-0.5 to 0.5)); higher = stronger / more preferred TF binding", "conditions": "protein concentration: 100 nM; construct: GST-full length", "method_in_brief": "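The E-score, a modified Wilcoxon-Mann-Whitney statistic, was computed by the Universal PBM Analysis Suite for every ungapped eight-base word pooled with its reverse complement. Scans behind it were normalised with masliner after bound GST-tagged yeast transcription factors were detected with fluorescent anti-GST. The proteins, at about 100-200 nM, had been applied to universal all-10-mer Agilent arrays made double-stranded by primer extension.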", "values": [
      {"sequence": "ATAGCGAC", "PBM E-score": 0.00835},
      {"sequence": "ACATGTCT", "PBM E-score": 0.0177},
      {"sequence": "AAAGTGAG", "PBM E-score": 0.101},
      {"sequence": "ATTCGTCC", "PBM E-score": 0.208},
      {"sequence": "ATATACGA", "PBM E-score": 0.0213},
      {"sequence": "CGCAGCGC", "PBM E-score": 0.0162},
      {"sequence": "GAACCGCA", "PBM E-score": 0.0939},
      {"sequence": "AACCTAGA", "PBM E-score": -0.0213},
      {"sequence": "ATGACTGA", "PBM E-score": 0.0407},
      {"sequence": "AAGCAACG", "PBM E-score": 0.207},
      {"sequence": "CGCATTCA", "PBM E-score": 0.143},
      {"sequence": "GTCTCTTA", "PBM E-score": 0.0448},
      {"sequence": "CTAGTGGA", "PBM E-score": -0.227},
      {"sequence": "AATGCTAC", "PBM E-score": 0.0985},
      {"sequence": "GAGTTGCC", "PBM E-score": 0.135},
      {"sequence": "ACAATGCG", "PBM E-score": 0.0843},
      {"sequence": "ACAGTGTA", "PBM E-score": 0.079},
      {"sequence": "ACCCTTGA", "PBM E-score": 0.054},
      {"sequence": "CCCTCGAG", "PBM E-score": -0.101},
      {"sequence": "AGTTGCGA", "PBM E-score": 0.0659},
      {"sequence": "ACCTGCAG", "PBM E-score": -0.111},
      {"sequence": "AACTGTCA", "PBM E-score": -0.0317},
      {"sequence": "CATCTCGC", "PBM E-score": 0.018},
      {"sequence": "AGCTAGTC", "PBM E-score": 0.0904},
      {"sequence": "AGATGACG", "PBM E-score": 0.0256},
      {"sequence": "AGAGCGAC", "PBM E-score": -0.135},
      {"sequence": "AAAAACGC", "PBM E-score": 0.137},
      {"sequence": "CCTATGAG", "PBM E-score": -0.263},
      {"sequence": "AAGACGTC", "PBM E-score": -0.0151},
      {"sequence": "AAGATAAT", "PBM E-score": 0.104},
      {"sequence": "CCGCGGTC", "PBM E-score": -0.0125},
      {"sequence": "GCGGTCAA", "PBM E-score": 0.026},
      {"sequence": "GCCCTAGC", "PBM E-score": -0.114},
      {"sequence": "CATATTTA", "PBM E-score": 0.232},
      {"sequence": "AGTGGGGC", "PBM E-score": -0.235},
      {"sequence": "GAAGTGCA", "PBM E-score": -0.0106},
      {"sequence": "TCACGTCA", "PBM E-score": 0.171},
      {"sequence": "TTTGCAAA", "PBM E-score": 0.224},
      {"sequence": "GTCTAGCA", "PBM E-score": -0.00856},
      {"sequence": "ACGGTAAA", "PBM E-score": 0.0043},
      {"sequence": "ACTCCAAG", "PBM E-score": -0.0466},
      {"sequence": "TAAAGTGA", "PBM E-score": 0.0686},
      {"sequence": "GAACCAAA", "PBM E-score": -0.0432},
      {"sequence": "AGCATAAA", "PBM E-score": -0.0572},
      {"sequence": "AGCAGTCG", "PBM E-score": -0.227},
      {"sequence": "AAAGGTAT", "PBM E-score": -0.0876},
      {"sequence": "ACCGAAAT", "PBM E-score": 0.0484},
      {"sequence": "AGCCACCC", "PBM E-score": -0.214},
      {"sequence": "ACGTCCAC", "PBM E-score": -0.049},
      {"sequence": "AGCCCTTC", "PBM E-score": -0.197},
      {"sequence": "CAGCTGCA", "PBM E-score": 0.00474},
      {"sequence": "CAAGTCTC", "PBM E-score": -0.347},
      {"sequence": "CAACTAAG", "PBM E-score": 0.0724},
      {"sequence": "GCTGCGCC", "PBM E-score": -0.181},
      {"sequence": "GATAAGAA", "PBM E-score": 0.239},
      {"sequence": "TGAAGACA", "PBM E-score": -0.0649},
      {"sequence": "CGCGCCGA", "PBM E-score": 0.0775},
      {"sequence": "CCCGGCCA", "PBM E-score": -0.213},
      {"sequence": "AGCCGACT", "PBM E-score": -0.0453},
      {"sequence": "TCTGGGCA", "PBM E-score": -0.156},
      {"sequence": "ACAAACAG", "PBM E-score": 0.0175},
      {"sequence": "AGAACGAA", "PBM E-score": 0.0662},
      {"sequence": "AGCCGTAC", "PBM E-score": -0.0329},
      {"sequence": "CGAGCATC", "PBM E-score": 0.0837},
      {"sequence": "AATCTAGA", "PBM E-score": -0.0904},
      {"sequence": "CGGACCGC", "PBM E-score": -0.139},
      {"sequence": "GGTGCTCA", "PBM E-score": -0.128},
      {"sequence": "ATCTAACG", "PBM E-score": 0.0344},
      {"sequence": "AGAAGCAC", "PBM E-score": -0.238},
      {"sequence": "TGCCACCA", "PBM E-score": -0.256},
      {"sequence": "ACGTTAAG", "PBM E-score": 0.145},
      {"sequence": "ACTGATAG", "PBM E-score": -0.0327},
      {"sequence": "AGTAGGAC", "PBM E-score": -0.00349},
      {"sequence": "AGATCAGA", "PBM E-score": -0.168},
      {"sequence": "CGTTCTCC", "PBM E-score": -0.114},
      {"sequence": "ACCTAAGC", "PBM E-score": -0.00145},
      {"sequence": "CGGATACC", "PBM E-score": 0.0705},
      {"sequence": "AGGTTTCA", "PBM E-score": 0.133},
      {"sequence": "GAAGTGTC", "PBM E-score": 0.032},
      {"sequence": "ACTGAGTG", "PBM E-score": -0.0663},
      {"sequence": "CCTGCTGC", "PBM E-score": 0.039},
      {"sequence": "ACTAAGCA", "PBM E-score": 0.181},
      {"sequence": "ACGCACCA", "PBM E-score": 0.0756},
      {"sequence": "ATCAGAGA", "PBM E-score": -0.0164},
      {"sequence": "CATTCTAA", "PBM E-score": 0.085},
      {"sequence": "AATCACTC", "PBM E-score": 0.0658},
      {"sequence": "ACCCGCGT", "PBM E-score": -0.00317},
      {"sequence": "CATATACC", "PBM E-score": -0.0196},
      {"sequence": "GTTTCGCA", "PBM E-score": -0.0238},
      {"sequence": "GGGGCAGA", "PBM E-score": -0.2},
      {"sequence": "TACTATCA", "PBM E-score": 0.212},
      {"sequence": "CGATAGTA", "PBM E-score": 0.0416},
      {"sequence": "CGATTGAA", "PBM E-score": 0.026},
      {"sequence": "AGGCCACG", "PBM E-score": 0.0286},
      {"sequence": "TAGCGCGA", "PBM E-score": 0.211},
      {"sequence": "CTGTTTGC", "PBM E-score": 0.0855},
      {"sequence": "CTACATGA", "PBM E-score": -0.0554},
      {"sequence": "CTAGGCGA", "PBM E-score": -0.124},
      {"sequence": "GACTTTAC", "PBM E-score": 0.119},
      {"sequence": "ATTGTTCA", "PBM E-score": 0.107},
      {"sequence": "AGAAGGAA", "PBM E-score": -0.232},
      {"sequence": "AGCGTTAA", "PBM E-score": 0.0357},
      {"sequence": "ACGTGTTA", "PBM E-score": 0.17},
      {"sequence": "AGATAGCA", "PBM E-score": 0.0129},
      {"sequence": "ACGGGAAC", "PBM E-score": 0.0667},
      {"sequence": "CCGAAGAG", "PBM E-score": -0.0285},
      {"sequence": "GGGCGTGA", "PBM E-score": -0.136},
      {"sequence": "GCCGCTTA", "PBM E-score": 0.138},
      {"sequence": "ACCGAGAG", "PBM E-score": -0.0599},
      {"sequence": "AACGGACC", "PBM E-score": -0.0229}
    ]}
  ]
}
